Test results as given in PubChem BioAssay AID504834 (National Center for Advancing Translational Sciences (NCATS), 2011).
In all, about 320,000 compounds went through this assay and about 22,000 (6.9%) were called active. Inconclusive means that the source gave no clear call. Such entries were picked first, then a sample of the others. The call rests on the fitted dose curve; in most records, active means well fitted inhibition curve with a large enough effect; inconclusive means small, poorly fitted or top-dose-only effect, or another doubt; inactive means no such curve, though single readings can be large or run the other way. Potencies beside an inconclusive call are fits to weak or partial responses and may not hold up.

assay: Primary qHTS for delayed death inhibitors of the malarial parasite plastid, 96 hour incubation; conditions: P. falciparum luciferase reporter growth; series mostly up to 28.7 µM
Procedure, shortened: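 Infected RBCs, 2% Hct / 0.05% parasitemia final; luciferase-reporter P. falciparum; cpd 96 h, 37 C, 5% CO2; luciferase detection reagent; luminescence.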
Potency means the concentration at half of the fitted maximal effect.

SMILES	Potency
COc1ccc(OCc2nnc(SCC(=O)Nc3ccccc3C#N)o2)cc1	inactive
O=C(c1cnn2c1NC(c1ccc(Br)cc1)CC2C(F)(F)F)N1CCN(C23CC4CC(CC(C4)C2)C3)CC1 (stereo unspecified)	active: 8.28 µM
CCOc1ccccc1N(C(=O)c1snc(C(N)=O)c1N)C(C(=O)NCC1CCCO1)c1ccc2ncccc2c1 (stereo unspecified)	inconclusive: 18.5 µM [inhibitor, single point]
C(#CCN1CCOCC1)COCc1ccccc1	active: 10.4 µM
CCOc1ccc(CN2CCN(CC3CC3)CC2CCO)cc1 (stereo unspecified)	inactive
C/C(=N/NC(=O)c1cc(Cl)ccc1O)C12CC3CC(CC(C3)C1)C2	inconclusive: 10.4 µM [inhibitor, partial curve, poor fit]
CC(C)CC1NC(=O)N(CC(=O)Nc2ccccc2-c2ccccc2)C1=O (stereo unspecified)	inactive
CCOC(=O)C1=C(C)NC(SCC(=O)Nc2cc(C)on2)=C(C#N)C1c1cccs1 (stereo unspecified)	inconclusive: 0.928 µM [inhibitor, full curve]
O=C(NCCc1ccc(Cl)cc1)C1CCCO1 (stereo unspecified)	inconclusive: 0.738 µM [inhibitor, full curve]
O=C(CSc1nc(-c2ccccc2)c(-c2ccccc2)[nH]1)N1CCN(S(=O)(=O)c2ccccc2)CC1	inconclusive: 3.7 µM [inhibitor, partial curve, poor fit]
Oc1ccc(/C=N/Nc2ncc(Cl)cc2Cl)cc1	inconclusive: 14.7 µM [inhibitor, single point]
CN(CC(=O)NCc1ccccc1)S(=O)(=O)c1ccc2c(c1)CCC(=O)N2	inactive
Cc1ccc(N2C(=O)c3n[nH]c(C)c3C2c2cccnc2)cc1 (stereo unspecified)	inactive
CCN(CC(=O)NCc1cccs1)C(=O)/C=C/c1cc(OC)ccc1OC	inactive
CCOC(=O)CSc1nc2ccsc2c(=O)n1C1CCN(C(=O)OCC)CC1	inconclusive: 0.0586 µM [inhibitor, full curve, poor fit]
COc1ccc(NC(=S)NC2CCCCC2)c(OC)c1	inconclusive: 5.86 µM [inhibitor, partial curve, poor fit]
O=C(Nc1ccccc1Cl)NC1(C(=O)N2CCCCC2)CCCCC1	inconclusive: 18.5 µM [inhibitor, single point]
COc1ccc(-c2oc(=O)n(C)c2-c2ccc(OC)cc2)cc1	inconclusive: 9.28 µM [inhibitor, partial curve, poor fit]
c1ccc(Cn2nnc3c(N4CCC5(CC4)OCCO5)ncnc32)cc1	active: 11.7 µM
O=C(NNCc1ccc(O)cc1)c1ccccc1Cl	inactive
Cc1ccc(/C=C2\C(=O)NC(=O)N(CC3CCCO3)C2=O)s1 (stereo unspecified)	inactive
Clc1ncn(CCOc2ccccc2)c1Cl	inconclusive: 18.5 µM [inhibitor, single point]
Cc1c(CNC2CCCC2)c(C(=O)O)c(C)n1Cc1ccccc1	inconclusive: 8.28 µM [inhibitor, partial curve, poor fit]
CCOC(=O)C1(Cc2cccc(OC)c2)CCN(Cc2ccc(C)s2)CC1	inconclusive: 18.5 µM [inhibitor, single point]

Individual results from above.
Value of C/C(=N/NC(=O)c1cc(Cl)ccc1O)C12CC3CC(CC(C3)C1)C2 under Potency: inconclusive: 10.4 µM [inhibitor, partial curve, poor fit]
Value of Clc1ncn(CCOc2ccccc2)c1Cl under Potency: inconclusive: 18.5 µM [inhibitor, single point]
Value of C(#CCN1CCOCC1)COCc1ccccc1 under Potency: active: 10.4 µM
Value of CCN(CC(=O)NCc1cccs1)C(=O)/C=C/c1cc(OC)ccc1OC under Potency: inactive
Value of CC(C)CC1NC(=O)N(CC(=O)Nc2ccccc2-c2ccccc2)C1=O (stereo unspecified) under Potency: inactive

Reprinted from the entries so far for reference:
SMILES	Potency
CN(CC(=O)NCc1ccccc1)S(=O)(=O)c1ccc2c(c1)CCC(=O)N2	inactive
Cc1ccc(N2C(=O)c3n[nH]c(C)c3C2c2cccnc2)cc1 (stereo unspecified)	inactive

Going on with the list:

SMILES	Potency
Cc1ccc(S(=O)(=O)N2CCC(C(=O)Nc3ccc(S(=O)(=O)N4CCCC4)cc3)CC2)cc1	active: 4.65 µM
COc1ccc(C(CNC(=O)c2c(C)nn(Cc3ccc(C)cc3)c2Cl)N2CCOCC2)cc1 (stereo unspecified)	inconclusive: 8.28 µM [inhibitor, partial curve, poor fit]
O=C(/C=C/c1cccc(Br)c1)N1CCN(c2ccccn2)CC1	inconclusive: 4.15 µM [inhibitor, partial curve, poor fit]
COc1ccc(C2=NOC(CNC(=S)N3CCOCC3)C2)cc1 (stereo unspecified)	inactive
C/C=C/C(=O)Nc1cccc(C2=NOC3(C2)C[C@@H](C(N)=O)N(C(=O)C(c2ccccc2)c2ccccc2)C3)c1 (stereo partly specified)	active: 13.1 µM
O=C(N/N=C/c1ccsc1)c1cc(-c2ccncc2)nc2ccccc12	inconclusive: 14.7 µM [inhibitor, single point]
CN(CC(=O)NCCCN1CCOCC1)S(=O)(=O)c1cc(Cl)ccc1Cl	inactive
COCCNC(=S)N/N=C(\C)c1cc2ccccc2o1	inconclusive: 18.5 µM [inhibitor, single point]
O=C(C1CCN(S(=O)(=O)c2ccc3c(c2)OCCO3)CC1)N1CCc2ccccc21	active: 10.4 µM
Cc1ccccc1NC(=O)N1CCN(S(=O)(=O)c2ccccc2)CC1	inconclusive: 13.1 µM [inhibitor, partial curve]
CCOc1ccc(S(=O)(=O)NC2CCCC2)cc1C	inconclusive: 18.5 µM [inhibitor, single point]
CCOC(=O)c1sc(NC(=O)C2CC(=O)N(c3ccc4c(c3)OCCO4)C2)nc1C (stereo unspecified)	inactive
CC(/C=C/c1ccco1)=N\NC(=O)CNc1ccc2ccccc2c1	inconclusive: 9.28 µM [inhibitor, single point]
COc1cccc(CN2CCN(C(=O)C3CCC(=O)N(C4CCCC4)C3)CC2)c1 (stereo unspecified)	inactive
Cn1cccc1CNCC(O)c1ccccc1 (stereo unspecified)	inactive
COc1ccc(-c2nc(C#N)c(N3CCCCC3)o2)cc1	inactive
Cc1ccc(-n2c(CSc3nc(C)cc(C)n3)nnc2SCC(=O)NCc2ccco2)cc1	inconclusive: 3.29 µM [inhibitor, partial curve, poor fit]
CN(C)CCNC(=O)c1ccc(Sc2ccc(Br)cc2)c([N+](=O)[O-])c1	inactive
Cc1ccccc1NC(=O)CSc1nc2ccccc2c(=O)n1CC1CCCO1 (stereo unspecified)	inconclusive: 18.5 µM [inhibitor, single point]
COc1ccc(-n2c(=O)c3ccccc3n(CC(=O)Nc3cc(C)on3)c2=O)cc1OC	inconclusive: 13.1 µM [inhibitor, partial curve]
CC(=O)Nc1ccc(NC(=O)C(OC(=O)c2ccccc2)C(OC(=O)c2ccccc2)C(=O)O)cc1 (stereo unspecified)	inconclusive: 13.1 µM [inhibitor, single point]
O=[N+]([O-])c1ccc(O)c(C=Nc2ccc3nc(-c4ccccc4)[nH]c3c2)c1	active: 1.47 µM
CCOC(=O)C1(CCOC)CCN(Cc2cccc(OCc3ccccc3)c2)CC1	inconclusive: 14.7 µM [inhibitor, single point]
c1csc(Cc2nn3c(-c4ccncc4)nnc3s2)c1	inconclusive: 18.5 µM [inhibitor, single point]

SMILES	Potency
COc1cccc(C(=O)Nc2ccccc2C(=O)NCC2CCCO2)c1 (stereo unspecified)	inconclusive: 8.28 µM [inhibitor, partial curve]
COc1ccccc1OCCCOc1ccc(/C=C2\SC(=O)NC2=O)cc1OC	inconclusive: 18.5 µM [inhibitor, single point]
Cc1nc(N2CCC(C)CC2)c2c(C)c(C(=O)Nc3cc(F)ccc3C)sc2n1	inconclusive: 10.4 µM [inhibitor, partial curve]
CC(C)=Cc1oc2ccc([N+](=O)[O-])cc2c1N1CC(C)OC(C)C1 (stereo unspecified)	inactive
O=C(c1ccco1)N1CCN(C(=S)NC2CC3CCC2C3)CC1 (stereo unspecified)	inactive
CCCCC[C@H](O)/C=C/[C@@H]1[C@@H](C/C=C\CCCC(=O)OC)[C@@H](O)C[C@H]1O	inconclusive: 1.31 µM [inhibitor, partial curve, poor fit]
COCCCNC(=S)N/N=C/c1ccc(O)cc1	inactive
Cc1ccc(S(=O)(=O)c2cnc(-c3ccccc3)nc2Oc2ccccc2)cc1	inactive
CCN(CC)C(=O)c1c(-c2ccccc2)oc2ccc(OC)cc12	inconclusive: 1.65 µM [inhibitor, full curve, poor fit]
Nn1c(SCC(=O)NCc2ccccc2)nnc1C1CC1	inconclusive: 18.5 µM [inhibitor, single point]
O=C(Nc1ccccc1)Nc1cccc(Cl)c1	inconclusive: 18.5 µM [inhibitor, single point]
COC(=O)c1cn(NC(=O)c2ccc(F)cc2)c(=O)c2ccccc12	inconclusive: 0.329 µM [inhibitor, full curve, poor fit]
O=C(Nc1ccccc1-c1nnc(SCc2ccccc2)o1)c1ccccc1	inconclusive: 7.38 µM [inhibitor, partial curve, poor fit]
O=[N+]([O-])c1ccc(N2CCN(CCO)CC2)cc1NCc1ccco1	inconclusive: 10.4 µM [inhibitor, single point]
COc1cccc(N2CCN(CC(=O)NCc3cccs3)CC2)c1	inconclusive: 18.5 µM [inhibitor, single point]
CCOc1ccc(C(=O)CN2CCN(S(=O)(=O)c3ccc(Cl)cc3)CC2)cc1	inactive
CC(C)CC1(C(=O)NCc2cc(F)cc(C(F)(F)F)c2)C=CCN1C(=O)c1ccccc1 (stereo unspecified)	inconclusive: 18.5 µM [inhibitor, single point]
CCn1c(O)c(/C=N/N=C2CCCCC2)c2cc(C3=NNC(=O)CC3)ccc21	inconclusive: 18.5 µM [inhibitor, single point]
Cc1ccsc1C(=O)N1CCN(c2ccccn2)CC1	inconclusive: 18.5 µM [inhibitor, single point]
CCCCc1ccc(-c2nc(-c3ccncc3)no2)cc1	inactive
Cc1cccc(N2CCN(C(=O)CCS(=O)(=O)c3ccc4c(c3)NC(=O)C(C)S4)CC2)c1C (stereo unspecified)	inactive
CC1(C)CC(=O)c2c(O)cc(OCc3ccc(Br)cc3)cc2O1	inactive
NC1=NC[C@H](c2ccccc2)N1CCc1cccc(F)c1	inconclusive: 18.5 µM [inhibitor, single point]
